The list shows a part of the results. This data set is noisy: repeats of one test often differ as much as different tests do.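 The human kidney-derived cells carry a stably integrated construct of eight TEAD-binding elements driving luciferase, read by luminescence in a drug-repurposing library screen. A compound counts as a hit when its signal is more than five robust Z scores above the plate mean.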
Tested on: HEK293A TEAD-LUC reporter
Test: TEAD-luciferase reporter activity (YAP activation), robust Z score vs plate; higher = stronger YAP/TEAD activation
Conditions: 24 h

| Compound | TEAD-luciferase reporter activity (compound concentration: 2 uM) | TEAD-luciferase reporter activity (compound concentration: 200 nM) | TEAD-luciferase reporter activity (compound concentration: 10 uM) |
| --- | --- | --- | --- |
| O=C(NCCN1CCOCC1)c1ccc(Cl)cc1 [moclobemide] | inactive: 0.0964 |  |  |
| O=C(NCCN1CCOCC1)c1ccc(Cl)cc1 |  | inactive: 0.109 | inactive: 1.49 |
| CCCCC(=O)c1ccccc1C(=O)c1ccc2[nH]c(NC(=O)OC)nc2c1 | inactive: -0.465 | inactive: -1.41 | inactive: 1.62 |
| Cc1ccc2c(Br)cc(Br)c(OC(=O)c3ccc(C#N)cc3)c2n1 | inactive: -2.72 | inactive: -0.241 | inactive: 0.972 |
| COCCOC(=O)C1=C(C)NC(C)=C(C(=O)OC(C)C)C1c1cccc(C#N)c1Cl (stereo not given) | inactive: -1.26 | inactive: -1.04 | inactive: 0.849 |
| COc1cccc(-c2ccc(CN3CCCC(NC(=O)c4ccc(C)cc4)C3)cc2)c1 (stereo not given) |  | active: 10.4 | inactive: -1.34 |
| Cc1cc(Cl)cc2c1N(Cc1cccc(C(F)(F)F)c1)C(=O)C21NC(=O)NC1=O (stereo not given) | inactive: -1.2 | inactive: 0.77 | inactive: 3.7 |
| Clc1ccc2c(c1)CCc1cccnc1C2=C1CCNCC1 |  | inactive: -2.67 | inactive: -2.28 |
| Clc1ccc2c(c1)CCc1cccnc1C2=C1CCNCC1 [desloratadine] | inactive: -1.85 |  |  |
| CCN(CC)CCNC(=O)COc1ccc(Cl)cc1 [Clofexamide] |  | inactive: -1.4 | inactive: 2.37 |
| CCN(CC)CCNC(=O)COc1ccc(Cl)cc1 | inactive: -0.613 |  |  |
| CC[C@H](NC(=O)[C@H](CS(=O)(=O)CC1CC1)N[C@@H](c1ccc(F)cc1)C(F)(F)F)C(=O)C(=O)NC1CC1 | inactive: -1.58 | inactive: 3.07 | inactive: -0.266 |
| CC(=O)Nc1ccc(CC(=O)O)cc1 [Actarit] | inactive: 1.21 |  |  |
| CC(=O)Nc1ccc(CC(=O)O)cc1 |  | inactive: 1.84 | inactive: -0.765 |
| CCCC12CCC(C(=O)O)(CC1)CC2 | inactive: 1.02 | inactive: -1.2 | inactive: 1.6 |
| N#Cc1ccc(N2N=C3c4ccc(C(=O)O)cc4CC[C@@H]3[C@@H]2C2CCCC2)cc1Cl | inactive: -0.152 | inactive: -1.32 | inactive: 0.472 |
| COc1ccccc1CCC(C)(C)NCC(O)c1ccc(O)cc1 (stereo not given) | inactive: 0.221 | inactive: 0.179 | inactive: 0.269 |
| COc1c(N2CCC/C(=C(/F)CN)C2)c(F)cc2c(=O)c(C(=O)O)cn(C3CC3)c12 | inactive: -2.15 | inactive: -1.85 | inactive: 1.17 |
| COc1c(O)cc2c(c1O)C1OC(CO)C(O)C(O)C1OC2=O (stereo not given) | inactive: -0.226 | inactive: -1.11 | inactive: -0.0338 |
| CS(=O)(=O)Nc1cc2c(cc1Oc1ccc(F)cc1F)C(=O)CC2 | inactive: -1.54 | inactive: -0.118 | inactive: -0.762 |
| O=[N+]([O-])c1ccc(N=C=S)cc1 | inactive: 1.48 | inactive: -0.624 | inactive: -0.675 |

2 entries picked at random from those above, as already listed:

| Compound | TEAD-luciferase reporter activity (compound concentration: 2 uM) | TEAD-luciferase reporter activity (compound concentration: 200 nM) | TEAD-luciferase reporter activity (compound concentration: 10 uM) |
| --- | --- | --- | --- |
| COc1ccccc1CCC(C)(C)NCC(O)c1ccc(O)cc1 (stereo not given) | inactive: 0.221 | inactive: 0.179 | inactive: 0.269 |
| O=C(NCCN1CCOCC1)c1ccc(Cl)cc1 [moclobemide] | inactive: 0.0964 |  |  |

Source: the supplement of paper PMC10735217
